For some assays here: At least one peptide structure holds a part that was inferred or is arguable (an end, a ring closure or a residue). For some assays here: At least one structure is not confirmed: it was looked up by name or label, or the drawing left a doubt. Peptide text beside a SMILES is read from it. * marks the point of attachment. Biotin = O=C1N[C@H]2[C@H](CS[C@H]2CCCCC(=O)*)N1
Experiments:
[1] = tested on: HeLa, MDA-MB231, MCF-7, PANC-1 tumor cell lines; assay: MTT cell viability with retro-inverso peptides; assay type: cell-based
Experimental: For determination of apoptosis by hypodiploid DNA content, various tumor cell lines were incubated with increasing concentrations of the cell permeable control scrambled (SEQ ID NO:25) or Survivin peptide (SEQ ID NO:19), harvested after 24 hours (floaters plus attached cells) fixed in 70% ethanol, and stained with 10 μg/ml propidium iodide plus 100 μg/ml RNAse A and 0.05% Triton™ X-100 in PBS, pH 7.4. Cultures were analyzed for DNA content by flow cytometry. For colorimetric quantification of cell viability, an MTT assay was used. […] Decrease in cell viability was analyzed for loss of colorimetric absorption at OD405.
To increase the stability in vivo of the cell permeable Survivin K79-L87 sequence, we synthesized peptidomimetic variants in which the cell penetrating Antennapedia sequence and the Survivin active sequence K79-L87 were synthesized using D-amino acid ([…]) and in the reverse order (inverso sequence). […] To test the ability of the retro-inverso cell permeable sequences to induce apoptosis in cancer cells, a panel of tumor cell lines were analyzed by the cell viability MTT assay after incubation with the indicated increasing concentrations of the P3 (Survivin) or P4 (control) retro-inverso cell permeable peptides.

[2] = tested on: HCT116, HeLa, MCF-7, PANC-1, PC3 tumor cells; assay: Trypan blue exclusion in tumor cell lines; assay type: cell-based; conditions: 150 μM, 24 hours
Experimental: To study the specificity of the retro-inverso P3 and P4 sequences described in Example 17, we incubated a variety of tumor cell lines with the cell permeable retro-inverso P3 and P4 peptides (150 μM), and stained the cultures after 24 hours by trypan blue (Sigma) exclusion. Cells that fail to exclude the blue dye were cells that lost cell viability and plasma membrane integrity.

[3] = tested on: MCF-7 cells; assay: Breast carcinoma MCF-7 xenograft, tumor volume; assay type: in vivo, CB17 SCID/beige mice; conditions: 50 mg/kg/i.p./day, 3 weeks, versus saline
[4] = tested on: MCF-7 cells; assay: Second model: in vivo adapted MCF-7 xenograft, tumor growth; parameters: species or system SCID/beige mice; conditions: 50 mg/kg/i.p./day, 23-day or 11-day treatment
[5] = tested on: MCF-7 tumors; assay: Immunohistochemistry of recovered MCF-7 tumors for Hsp90 client proteins; assay type: in vivo, SCID/beige mice; conditions: end of treatment, versus saline group
[6] = tested on: PC3 cells; assay: Prostate cancer PC3 xenograft, tumor growth; assay type: in vivo, SCID/beige mice; conditions: 50 mg/kg/daily/i.p., 12-d treatment, versus saline
[7] = tested on: HeLa cells; assay: Geldanamycin-induced degradation of IAP proteins, Western blotting; assay type: cell-based, Human; conditions: 24 hours
[8] = molecular target: T1, Hsp90 (Homo sapiens, UniProt P07900); assay: Surface plasmon resonance of immobilized biotin peptides with r-Hsp90; assay type: binding
T1 construct: GST-Hsp90 (amino acids 1-732); GST (N); made in house; host or cells: E. coli
Experimental: Wild type Survivin peptide 77 to 91 (SEQ ID NO:22) or the corresponding C84A mutant 77-91 peptide (HKKHSSGAAFLSVKK; SEQ ID NO:23) was synthesized with an N-terminal biotin and immobilized on streptavidin coated chips (SA5) purchased from Biacore Inc. (Piscataway, N.J.). Increasing concentrations (100 nM-10 μM) of purified r-Hsp90 suspended in 10 mM HEPES, 150 mM NaCl, 3 mM EDTA, 0.005% polysorbate-20, 1 mM DTT, were then injected in […] over the immobilized peptides. A constant flow rate of […] was maintained, and the dissociation phase was followed for 300 seconds. Surfaces were regenerated using […] of 1 M NaCl/50 mM NaOH after each dissociation phase. A new injection cycle was initiated only after 10 min post-regeneration to ensure complete removal of NaCl and NaOH. The collected data were analyzed using the Biaeval 3.0 software package from Biacore Inc.
Sensorgrams (FIG. 10B) indicate binding of the Survivin peptides to Hsp90, measured by an increase in surface plasmon resonance during analyte flow over the chip surface, with the nonspecific signal from the biotin-only surface subtracted.

## CSCC[C@@H](NC(=O)[C@@H](CCCCN)NC(=O)[C@@H](Cc1c[nH]c2ccccc12)NC(=O)[C@@H](CCCCN)NC(=O)[C@@H](CCCCN)NC(=O)CCCCCNC(=O)CCCC[C@@H]1SC[C@@H]2NC(=O)N[C@@H]21)C(=O)N[C@H](CCCNC(=N)N)C(=O)N[C@H](CCCNC(=N)N)C(=O)N[C@H](CC(N)=O)C(=O)N[C@H](CCC(N)=O)C(=O)N[C@H](Cc1ccccc1)C(=O)N[C@H](Cc1c[nH]c2ccccc12)C(=O)N[C@@H](C(=O)N[C@H](CCCCN)C(=O)N[C@@H](C(=O)N[C@H](CCC(N)=O)C(=O)N[C@H](CCCNC(=N)N)C(=O)N[C@H](CC(C)C)C(=O)N[C@H](Cc1ccccc1)C(=O)N[C@H](C)C(=O)N[C@H](CS)C(=O)NCC(=O)N[C@H](CO)C(=O)N[C@H](CO)C(=O)N[C@H](Cc1c[nH]cn1)C(=O)N[C@H](CCCCN)C(N)=O)C(C)C)C(C)C [P3]
[1]; increasing concentrations, 24 hours
  cell viability (MTT): dose-dependent loss of cell viability
[1]; panel of tumor cell lines
  dependence of activity on p53 status: independent of p53 status
[2]
  tumor cell viability (trypan blue exclusion): rapid loss of viability in the vast majority of all tumor cells examined
[3]
  rate of increase of tumor volume: slowed the rate of increase of tumor volume more effectively than saline
[4]
  tumor growth: inhibited the growth
[5]
  Akt levels in tumor cells: nearly completely abolished
[6]
  rate of tumor growth: greatly reduced

## COC1=C2C[C@@H](C)C[C@H](OC)[C@H](O)[C@@H](C)/C=C(\C)[C@H](OC(N)=O)[C@@H](OC)/C=C\C=C(/C)C(=O)NC(=CC1=O)C2=O [GA, geldanamycin]
[7]; 1 μM GA, relative to untreated control
  steady-state levels of Survivin, XIAP, and cIAP2: decreased
[7]; GA treatment
  Levels of Hsp90 and β-actin: unaffected

## CC(C)C[C@H](NC(=O)[C@H](Cc1ccccc1)NC(=O)[C@H](C)NC(=O)[C@H](CS)NC(=O)CNC(=O)[C@H](CO)NC(=O)[C@H](CO)NC(=O)[C@H](Cc1c[nH]cn1)NC(=O)[C@H](CCCCN)NC(=O)[C@H](CCCCN)NC(=O)[C@H](Cc1c[nH]cn1)NC(=O)CCCC[C@@H]1SC[C@@H]2NC(=O)N[C@@H]21)C(=O)N[C@@H](CO)C(=O)N[C@H](C(=O)N[C@@H](CCCCN)C(=O)N[C@@H](CCCCN)C(=O)O)C(C)C [SEQ ID NO:22, His Lys Lys His Ser Ser Gly Cys Ala Phe Leu Ser Val Lys Lys] (Biotin-HKKHSSGCAFLSVKK-OH; N-terminus and C-terminus assumed)
[8]
  off-rates, wild type peptide relative to C84A peptide: 10 fold slower
  on-rates, wild type versus C84A peptide: similar
